Results: publication PMC5995858
These are yes or no findings as the source states them, for the method shown. In cells and extracts the contact can be indirect. Some results given as binding are weak or reduced against the parent protein; the word gives no strength. Tags and fused reporters may be left off the sequences shown.

The chains behind the UniProt entries cited, without tags or fusion partners.
UniProt Q8R527: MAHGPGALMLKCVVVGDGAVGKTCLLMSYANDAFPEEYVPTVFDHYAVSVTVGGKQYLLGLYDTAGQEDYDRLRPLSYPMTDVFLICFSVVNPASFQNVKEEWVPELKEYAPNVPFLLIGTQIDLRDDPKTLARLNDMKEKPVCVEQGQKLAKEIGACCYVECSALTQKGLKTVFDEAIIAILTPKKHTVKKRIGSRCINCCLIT

B1: HA-Arhgef7 (protein, UniProt Q9ES28-5 1-782)
chain: MNSAEQTVTWLITLGVLESPKKTISDPEVFLQASLKDGVVLCRLLERLLPGTIEKVYPEPRNESECLSNIREFLRACGASLRLETFDANDLYQGQNFNKVLSSLVTLNKVTADIGLGSDSVCARPSSHRIKSFDSLGSQSSHSRTSKLLQSQYRSLDMTDNTNSQLVVRAKFNFQQTNEDELSFSKGDVIHVTRVEEGGWWEGTHNGRTGWFPSNYVREIKPSEKPVSPKSGTLKSPPKGFDTTAINKSYYNVVLQNILETEHEYSKELQSVLSTYLRPLQTSDKLSSANTSYLMGNLEEISSFQQVLVQSLEECTKSPEAQQRVGGCFLSLMPQMRTLYLAYCANHPSAVSVLTEHSEDLGEFMETKGASSPGILVLTTGLSKPFMRLDKYPTLLKELERHMEDYHPDRQDIQKSMTAFKNLSAQCQEVRKRKELELQILTEPIRSWEGDDIKTLGSVTYMSQVTIQCAGSEEKNERYLLLFPNLLLMLSASPRMSGFIYQGKLPTTGMTITKLEDSENHRNAFEISGSMIERILVSCTSQQDLHEWVEHLQKQTKVTSVSNPTIKPHSVPSHTLPSHPLTPSSKHADSKPVALTPAYHTLPHPSHHGTPHTTISWGPLEPPKTPKPWSLSCLRPAPPLRPSAALCYKEDLSKSPKTMKKLLPKRKPERKPSDEEFAVRKSTAALEEDAQILKVIEAYCTSAKTRQTLNSTWQGTDLMHNHVLADDDQSSLDSLGRRSSLSRLEPSDLSEDSEYDSIWTAHSYRMGSASRKSCCSYISHQN
B2: GFP-Arhgef7 (protein, UniProt Q9ES28-5 1-782)
chain: B1 chain

Biological target: GST-TC10 (mouse) (UniProt Q8R527)
Assay: pull-down; GST-TC10 coupled to glutathione-sepharose beads, incubated with lysates of transfected HEK 293T cells (TLB lysis buffer: Tris/HCl 50 mM pH 7.4, NaCl 150 mM, Triton X-100 1%); bound protein by Western blot (anti-HA or anti-GFP); only the target purified

Row | Binder | binding
1 | B1 | binds
2 | B2 | binds
